Data from paper doi:10.1101/2025.05.15.654347.
Numbering of substitutions follows the chain as printed. Read-outs that look alike come from different tables or passages of the source. Results are given in words; binding and its absence hold for the method and conditions named. Binding seen in cells or lysates may run through a third protein. Some results given as binding are weak or reduced against the parent protein; the word gives no strength. Tags and fused reporters may be left off the sequences shown. One block for each molecule: values may come before it.

Sequences of proteins named here, by UniProt entry; tags and fusion partners are left off. Residues count along the entry.
UniProt P15208, residues 28-1372: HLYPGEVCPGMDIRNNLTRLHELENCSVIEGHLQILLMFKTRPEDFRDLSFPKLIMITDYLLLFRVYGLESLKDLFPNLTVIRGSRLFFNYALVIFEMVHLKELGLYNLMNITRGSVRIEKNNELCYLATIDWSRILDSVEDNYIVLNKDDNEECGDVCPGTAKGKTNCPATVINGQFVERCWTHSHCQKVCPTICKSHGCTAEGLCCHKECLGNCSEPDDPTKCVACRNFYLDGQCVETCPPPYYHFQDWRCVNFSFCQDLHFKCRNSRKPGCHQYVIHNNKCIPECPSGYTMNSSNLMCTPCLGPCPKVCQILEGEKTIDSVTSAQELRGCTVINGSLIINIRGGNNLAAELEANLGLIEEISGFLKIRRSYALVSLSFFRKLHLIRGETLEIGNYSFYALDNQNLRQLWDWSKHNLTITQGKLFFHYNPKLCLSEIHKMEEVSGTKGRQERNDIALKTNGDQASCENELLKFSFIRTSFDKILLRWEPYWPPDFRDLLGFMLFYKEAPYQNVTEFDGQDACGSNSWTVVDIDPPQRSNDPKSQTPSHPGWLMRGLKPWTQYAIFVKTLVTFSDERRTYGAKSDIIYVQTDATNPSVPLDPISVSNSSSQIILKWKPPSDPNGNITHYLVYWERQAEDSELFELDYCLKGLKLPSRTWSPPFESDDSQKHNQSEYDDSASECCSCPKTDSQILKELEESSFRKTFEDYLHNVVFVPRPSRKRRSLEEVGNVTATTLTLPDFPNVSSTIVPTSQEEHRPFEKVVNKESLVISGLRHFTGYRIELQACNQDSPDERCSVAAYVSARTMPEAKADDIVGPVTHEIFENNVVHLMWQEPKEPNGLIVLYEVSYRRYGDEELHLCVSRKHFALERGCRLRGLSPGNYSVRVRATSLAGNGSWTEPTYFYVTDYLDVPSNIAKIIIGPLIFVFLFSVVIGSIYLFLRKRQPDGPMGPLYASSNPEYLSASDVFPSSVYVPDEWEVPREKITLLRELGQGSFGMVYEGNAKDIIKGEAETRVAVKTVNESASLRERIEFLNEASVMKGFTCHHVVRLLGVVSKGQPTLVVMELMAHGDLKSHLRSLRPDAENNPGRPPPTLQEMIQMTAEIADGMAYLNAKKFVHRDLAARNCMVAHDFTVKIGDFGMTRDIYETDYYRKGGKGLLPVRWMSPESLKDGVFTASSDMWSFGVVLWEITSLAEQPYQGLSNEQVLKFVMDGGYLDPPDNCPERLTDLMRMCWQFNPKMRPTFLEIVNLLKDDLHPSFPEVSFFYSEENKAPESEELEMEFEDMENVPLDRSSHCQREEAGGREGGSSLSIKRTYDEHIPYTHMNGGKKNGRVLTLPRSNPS
UniProt Q60751, residues 31-1373: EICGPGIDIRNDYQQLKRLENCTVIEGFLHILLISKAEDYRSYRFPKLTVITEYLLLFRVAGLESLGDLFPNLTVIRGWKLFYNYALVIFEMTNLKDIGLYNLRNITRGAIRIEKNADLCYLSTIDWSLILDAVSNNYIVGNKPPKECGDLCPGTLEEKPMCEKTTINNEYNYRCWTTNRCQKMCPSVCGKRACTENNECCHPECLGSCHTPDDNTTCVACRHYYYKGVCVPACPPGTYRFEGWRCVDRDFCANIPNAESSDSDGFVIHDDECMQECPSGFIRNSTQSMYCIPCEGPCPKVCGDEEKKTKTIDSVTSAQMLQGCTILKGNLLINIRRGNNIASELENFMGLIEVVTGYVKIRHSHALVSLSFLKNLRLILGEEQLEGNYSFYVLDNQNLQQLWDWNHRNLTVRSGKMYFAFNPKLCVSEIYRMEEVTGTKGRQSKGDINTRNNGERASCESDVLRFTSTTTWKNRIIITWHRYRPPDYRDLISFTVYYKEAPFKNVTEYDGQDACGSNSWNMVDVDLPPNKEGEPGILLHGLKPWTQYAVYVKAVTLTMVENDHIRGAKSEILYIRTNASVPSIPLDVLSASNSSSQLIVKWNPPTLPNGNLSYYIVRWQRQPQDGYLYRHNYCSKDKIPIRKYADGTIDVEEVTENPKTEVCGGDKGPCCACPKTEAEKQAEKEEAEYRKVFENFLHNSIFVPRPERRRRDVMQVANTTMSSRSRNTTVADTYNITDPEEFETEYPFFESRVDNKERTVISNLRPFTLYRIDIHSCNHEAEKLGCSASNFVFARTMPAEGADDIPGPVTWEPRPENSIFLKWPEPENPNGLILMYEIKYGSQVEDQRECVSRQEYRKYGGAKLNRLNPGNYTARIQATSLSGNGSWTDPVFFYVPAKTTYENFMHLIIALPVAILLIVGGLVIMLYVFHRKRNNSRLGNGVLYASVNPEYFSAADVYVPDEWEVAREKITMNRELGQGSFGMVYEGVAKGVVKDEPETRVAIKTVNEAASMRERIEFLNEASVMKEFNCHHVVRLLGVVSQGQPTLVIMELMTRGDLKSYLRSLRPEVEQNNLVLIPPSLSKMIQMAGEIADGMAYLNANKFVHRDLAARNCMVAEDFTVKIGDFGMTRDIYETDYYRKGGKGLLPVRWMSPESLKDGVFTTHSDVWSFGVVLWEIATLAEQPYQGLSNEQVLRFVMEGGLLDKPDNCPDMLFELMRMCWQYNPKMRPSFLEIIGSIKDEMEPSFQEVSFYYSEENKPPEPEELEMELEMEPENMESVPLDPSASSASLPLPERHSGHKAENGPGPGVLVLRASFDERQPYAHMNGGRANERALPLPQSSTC

How the values were obtained:
Test in all cases: co-IP
[1] = target: T1, endogenous BTBD9-3xFLAG (BTBD9::FLAG myoblasts) (mouse (endogenous in C2C12)) (UniProt Q8C726)
T1 sequence: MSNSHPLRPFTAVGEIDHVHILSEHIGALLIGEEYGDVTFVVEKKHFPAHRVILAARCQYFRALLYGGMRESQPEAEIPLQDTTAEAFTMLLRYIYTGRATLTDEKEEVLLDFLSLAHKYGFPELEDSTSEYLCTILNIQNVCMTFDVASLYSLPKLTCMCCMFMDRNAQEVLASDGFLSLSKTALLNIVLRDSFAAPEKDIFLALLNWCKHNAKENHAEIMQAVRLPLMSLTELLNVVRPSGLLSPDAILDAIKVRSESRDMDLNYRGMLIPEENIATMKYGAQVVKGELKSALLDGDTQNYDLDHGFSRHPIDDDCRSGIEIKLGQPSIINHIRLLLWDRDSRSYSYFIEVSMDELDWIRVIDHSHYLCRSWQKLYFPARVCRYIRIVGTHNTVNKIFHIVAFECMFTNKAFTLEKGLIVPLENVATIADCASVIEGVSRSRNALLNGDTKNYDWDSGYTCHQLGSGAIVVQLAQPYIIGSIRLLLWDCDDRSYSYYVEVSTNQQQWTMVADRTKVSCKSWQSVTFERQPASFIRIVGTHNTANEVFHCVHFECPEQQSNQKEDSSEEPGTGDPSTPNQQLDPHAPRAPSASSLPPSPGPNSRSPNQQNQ

[2] = target: T2, ^FLAGBTBD9 (wildtype), for small-scale immunoprecipitation (not stated (human or mouse cDNA cloned)) (UniProt Q96Q07)
T2 sequence: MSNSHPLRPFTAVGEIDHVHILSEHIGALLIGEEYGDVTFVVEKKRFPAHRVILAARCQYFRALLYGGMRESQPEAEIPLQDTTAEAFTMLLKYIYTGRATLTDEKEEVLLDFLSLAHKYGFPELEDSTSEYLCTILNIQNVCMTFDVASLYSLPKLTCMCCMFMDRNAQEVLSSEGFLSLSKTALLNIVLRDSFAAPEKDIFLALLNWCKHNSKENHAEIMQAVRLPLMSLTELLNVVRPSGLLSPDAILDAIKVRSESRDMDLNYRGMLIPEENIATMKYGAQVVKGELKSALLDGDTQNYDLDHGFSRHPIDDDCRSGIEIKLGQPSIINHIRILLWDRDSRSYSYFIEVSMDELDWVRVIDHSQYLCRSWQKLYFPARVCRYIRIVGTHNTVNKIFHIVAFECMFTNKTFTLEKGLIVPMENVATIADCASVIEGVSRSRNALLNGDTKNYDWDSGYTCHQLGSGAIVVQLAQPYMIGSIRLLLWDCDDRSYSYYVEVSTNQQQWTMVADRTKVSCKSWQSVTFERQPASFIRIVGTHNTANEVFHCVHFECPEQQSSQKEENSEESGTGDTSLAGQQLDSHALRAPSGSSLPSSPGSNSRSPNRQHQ

[3] = target: T2, ^FLAGBTBD9 (wildtype), for small-scale immunoprecipitation (not stated (human or mouse cDNA cloned)); remark: listed apart in the source
[4] = target: T1, endogenous BTBD9-3xFLAG (BTBD9::FLAG myoblasts) (mouse (endogenous in C2C12)); remark: listed apart in the source
[5] = target: T3, ^FLAGBTBD9^ΔCUL3 (M69A/R70A/E71A), for small-scale immunoprecipitation (not stated (human or mouse cDNA cloned)) (UniProt Q96Q07)
T3 sequence: T2 sequence with M69A, R70A, E71A

- binding [1]: binds
Molecule: insulin receptor (from UniProt P15208 28-1372)

- binding [1]: binds
Molecule: IGF1 receptor (from UniProt Q60751 31-1373)

- binding [2]: binds
Molecule: ^HACAV1 (from UniProt Q03135 1-178)

- binding [3]: binds
B1: ^HAKCTD10 (protein, UniProt Q9H3F6 1-313)
chain: MEEMSGESVVSSAVPAAATRTTSFKGTSPSSKYVKLNVGGALYYTTMQTLTKQDTMLKAMFSGRMEVLTDSEGWILIDRCGKHFGTILNYLRDGAVPLPESRREIEELLAEAKYYLVQGLVEECQAALQNKDTYEPFCKVPVITSSKEEQKLIATSNKPAVKLLYNRSNNKYSYTSNSDDNMLKNIELFDKLSLRFNGRVLFIKDVIGDEICCWSFYGQGRKIAEVCCTSIVYATEKKQTKVEFPEARIYEETLNILLYEAQDGRGPDNALLEATGGAAGRSHHLDEDEERERIERVRRIHIKRPDDRAHLHQ

- binding [3]: binds
B2: KCTD10 co-precipitating with FLAG-tagged BTBD9 variants (Figure 3A) (protein, UniProt Q9H3F6 1-313)
chain: B1 chain

- binding [4]: binds
B3: endogenous KCTD10 of C2C12 myoblasts (protein, UniProt Q922M3 1-315)
chain: MEEMSGDSVVSSAVPAAATRTTSFKGASPSSKYVKLNVGGALYYTTMQTLTKQDTMLKAMFSGRMEVLTDSEGWILIDRCGKHFGTILNYLRDGGVPLPESRREIEELLAEAKYYLVQGLLEECQAALQNKDTYEPFCKVPVITSSKEEQRLIATSNKPAVKLLYNRSNNKYSYTSNSDDNMLKNIELFDKLSLRFNGRVLFIKDVIGDEICCWSFYGQGRKIAEVCCTSIVYATEKKQTKVEFPEARIYEETLNILLYEAQDGRGPDNALLEATGGAAGRSHHLDEDEERERERIERVRRIHIKRPDDRAHLHQ

- binding [3]: binds
- binding [5]: binds
- binding [4]: binds
B4: endogenous CAV1 of C2C12 myoblasts (protein, UniProt P49817 1-178)
chain: MSGGKYVDSEGHLYTVPIREQGNIYKPNNKAMADEVTEKQVYDAHTKEIDLVNRDPKHLNDDVVKIDFEDVIAEPEGTHSFDGIWKASFTTFTVTKYWFYRLLSTIFGIPMALIWGIYFAILSFLHIWAVVPCIKSFLIEIQCISRVYSIYVHTFCDPLFEAIGKIFSNIRISTQKEI

- binding [3]: binds
B5: modified version of CAV1, with a molecular weight expected for monoubiquitylated CAV1 (protein, UniProt P49817 1-178)
chain: B4 chain
modifications: modified consistent with monoubiquitylation; site not stated

- binding [4]: binds
B6: active PDK1, the kinase responsible for AKT activation (enzyme, UniProt Q9Z2A0 1-559)
chain: MARTTSQLYDAVPIQSSVVLCSCPSPSMVRSQTEPGSSPGIPSGVSRQGSTMDGTTAEARPSTNPLQQHPAQLPPQPRKKRPEDFKFGKILGEGSFSTVVLARELATSREYAIKILEKRHIIKENKVPYVTRERDVMSRLDHPFFVKLYFTFQDDEKLYFGLSYAKNGELLKYIRKIGSFDETCTRFYTAEIVSALEYLHGKGIIHRDLKPENILLNEDMHIQITDFGTAKVLSPESKQARANSFVGTAQYVSPELLTEKSACKSSDLWALGCIIYQLVAGLPPFRAGNEYLIFQKIIKLEYHFPEKFFPKARDLVEKLLVLDATKRLGCEEMEGYGPLKAHPFFETITWENLHQQTPPKLTAYLPAMSEDDEDCYGNYDNLLSQFGFMQVSSSSSSHSLSTVETSLPQRSGSNIEQYIHDLDTNSFELDLQFSEDEKRLLLEKQAGGNPWHQFVENNLILKMGPVDKRKGLFARRRQLLLTEGPHLYYVDPVNKVLKGEIPWSQELRPEAKNFKTFFVHTPNRTYYLMDPSGNAHKWCRKIQEVWRQQYQSNPDAAVQ
modifications: 'active' as printed; the modification that was detected is not stated

- binding [3]: binds
B7: HA-tagged TNFAIP1 (protein, UniProt Q13829 1-316)
chain: MSGDTCLCPASGAKPKLSGFKGGGLGNKYVQLNVGGSLYYTTVRALTRHDTMLKAMFSGRMEVLTDKEGWILIDRCGKHFGTILNYLRDDTITLPQNRQEIKELMAEAKYYLIQGLVNMCQSALQDKKDSYQPVCNIPIITSLKEEERLIESSTKPVVKLLYNRSNNKYSYTSNSDDHLLKNIELFDKLSLRFNGRVLFIKDVIGDEICCWSFYGQGRKLAEVCCTSIVYATEKKQTKVEFPEARIYEETLNVLLYETPRVPDNSLLEATSRSRSQASPSEDEETFELRDRVRRIHVKRYSTYDDRQLGHQSTHRD
